{
  "source": "patent US20050209157A1",
  "about": "“Short bioactive peptides and methods for their use” (priority 2001, published 2005)",
  "key": {"[1]": {"system": "human red blood cells (RBC)", "assay_type": "cell-based", "conditions": "hemolytic assay, concentration at 50% hemolysis, 1 hour at 37° C.", "protocol": "This hemolytic assay is based upon that presented in Journal of Peptide Research 53: 82-90 (1999). […] All procedures were performed according to safety protocols pertaining to the handling and disposal of human body fluids.\nRed blood cells (RBCs) were washed three times with PBS (35 mM phosphate buffer 0.15 M NaCl, pH 7.0). RBCs suspended in PBS (0.4% (v/v); about 10 ml per 15 peptides) were prepared. Suspensions (100 μl) were aliquoted to each sample and control tube. Serially diluted peptide solutions (100 μl) were pipetted into the sample tubes. Negative control tubes contained 100 μl PBS; positive control tubes contained 100 μl 1% Triton-X100 detergent. All tubes were incubated for 1 hour at 37° C. The tubes were removed from the incubator and centrifuged at 1000 g for 5 minutes. Supernatant (100 μl) was pipetted to a 96-well polyvinyl chloride plate. The absorbance at 414 nm (A414) was measured, and used to calculate the percent hemolysis according to the following formula. [formula]"}, "WI38": {"system": "WI38", "conditions": "WI38 normal lung fibroblast line, MTT, 24 hours with peptide"}, "cancer cell lines": {"system": "cancer cell lines", "experiment": "Anti-cancer assays, MTT, summary over the cancer cell lines", "assay_type": "cell-based", "conditions": "X = preferred"}, "fungal": {"system": "fungal", "experiment": "Presently preferred antifungal peptides, selected from the MIC/MBC data", "assay_type": "cell-based", "conditions": "X = preferred", "description": "The peptide's “length” is the number of amino acid residues in the sequence."}, "P. aeruginosa": {"system": "P. aeruginosa", "assay_type": "cell-based, Pseudomonas aeruginosa", "conditions": "P. aeruginosa H744; MIC of nalidixic acid with peptide at ¼ MIC", "protocol": "(§1) The synergistic effects of the inventive peptides with either chloramphenicol or nalidixic acid against efflux mutants of Pseudomonas aeruginosa were investigated. The MIC values were determined for either nalidixic acid or chloramphenicol alone as baselines. Peptides were added at their ¼ MIC concentration, and the concentration of either nalidixic acid or chloramphenicol to arrive at the MIC was determined. […] The fractional inhibitory concentration (FIC) index was used to determine synergy between peptides and antibiotics. Two-fold serial dilutions of antibiotic were tested in the presence of a constant amount of peptide, equal to one quarter of peptide MIC. The FIC index was determined as follows: FIC=0.25+MICantibiotic in combination/MICantibiotic alone. An FIC index of 0.5 or less is considered as synergy."}, "P. aeruginosa H374": {"system": "P. aeruginosa H374", "assay_type": "cell-based, Pseudomonas aeruginosa", "conditions": "for MIC Cm-comb.: MIC of chloramphenicol with peptide at ¼ MIC; for MIC Nal-comb.: MIC of nalidixic acid with peptide at ¼ MIC", "protocol": "as §1"}, "[2]": {"system": "Staphylococcus aureus ATCC 6538", "experiment": "Antimicrobial assay I, MIC by OD measurement", "assay_type": "cell-based", "conditions": "37° C. for 24 hours, absorbance 620 nm", "description": "(§2) The data for the following antimicrobial assay of the peptides have been obtained by making OD measurements in in vitro cell culture experiments with and without added peptide. The protocol used is as follows.\n(§3) Cell lines included Staphylococcus aureus ATCC 6538 or 25923, Pseudomonas aeruginosa ATCC 9027 or 27853. Medium used were Antibiotic Medium 3 (Difco), Antibiotic Medium 2 (Difco), and 0.85% saline. Controls used were physiological saline, and gentamycin at 50, 25, 10, 5, 1, and 0.1 ppm.\n(§4) Absorbance was read at 620 nm after shaking to resuspend cells.\n(§5) Staph6538 is Staphylococcus aureus ATCC accession number 6538; paerug9027 is Pseudomonas aeruginosa ATCC accession number 9027, yeast is Saccharomyces cerevisiae."}, "[3]": {"system": "Pseudomonas aeruginosa ATCC 9027", "experiment": "Antimicrobial assay I, MIC by OD measurement", "assay_type": "cell-based", "conditions": "37° C. for 24 hours, absorbance 620 nm", "description": "as §2, §3, §4, §5"}, "S. epidermidis C621": {"system": "S. epidermidis C621", "assay_type": "cell-based, Staphylococcus epidermidis", "conditions": "mean of three; 16 to 20 hours at 35° C."}, "S. pneumoniae C718": {"system": "S. pneumoniae C718", "experiment": "Antimicrobial assays II, NCCLS broth microdilution MIC", "assay_type": "cell-based, Streptococcus pneumoniae", "conditions": "mean of three"}, "S. pneumoniae C719": {"system": "S. pneumoniae C719", "experiment": "Antimicrobial assays II, NCCLS broth microdilution MIC", "assay_type": "cell-based, Streptococcus pneumoniae", "conditions": "mean of three, in µg/mL"}, "S. pyogenes ATCC19615": {"system": "S. pyogenes ATCC19615", "experiment": "Antimicrobial assays II, NCCLS broth microdilution MIC", "assay_type": "cell-based, Streptococcus pyogenes", "conditions": "mean of three, in µg/mL"}, "P. acne ATCC 6919": {"system": "P. acne ATCC 6919", "experiment": "Antimicrobial assays II, NCCLS broth microdilution MIC", "assay_type": "cell-based, Propionibacterium acnes", "conditions": "mean of three, in µg/mL"}, "S. aureus (MRSA)": {"system": "S. aureus (MRSA)", "assay_type": "cell-based, Staphylococcus aureus", "conditions": "mean of three; 16 to 20 hours at 35° C."}, "S. pyogenes M76": {"system": "S. pyogenes M76", "experiment": "Antimicrobial assays II, NCCLS broth microdilution MIC", "assay_type": "cell-based, Streptococcus pyogenes", "conditions": "mean of three; 16 to 20 hours at 35° C."}},
  "note": "Values joined by “and” are separate entries in the source; they are usually repeats but may differ in a detail not shown here. Equal values may be shown once. Read-outs that look alike come from different tables or passages of the source. Part of at least one peptide drawing is inferred or uncertain, most often the ends. No end group written: not given here.",
  "data": [
    {"compound": "VALALKALKKALKKLKKALKKAL-NH2 [KALV]", "values": [
      {"measurement": "LD50", "setting": "[1]", "value": 150, "unit": "µg/mL"}
    ]},
    {"compound": "VALALKALKKALKKLKKALKKAL-NH2 [HECATE AM V]", "values": [
      {"measurement": "LD50 WI38", "setting": "WI38", "value": 285, "unit": "µg/mL"}
    ]},
    {"compound": "CC(C)C[C@H](NC(=O)[C@H](C)NC(=O)[C@H](CC(C)C)NC(=O)[C@H](CCCCN)NC(=O)[C@H](C)NC(=O)[C@H](CC(C)C)NC(=O)[C@H](CCCCN)NC(=O)[C@H](CCCCN)NC(=O)[C@H](C)NC(=O)[C@H](CC(C)C)NC(=O)[C@H](CCCCN)NC(=O)[C@H](C)NC(=O)[C@H](CC(C)C)NC(=O)[C@H](CCCCN)NC(=O)[C@H](CCCCN)NC(=O)[C@H](C)NC(=O)[C@@H](N)Cc1ccccc1)C(N)=O", "note": "[compound 35]", "values": [
      {"measurement": "Anti-cancer (preferred peptide)", "setting": "cancer cell lines", "value": "X (Preferred anticancer peptides can be selected as having LD50 values of less than or equal to about 25 μg/ml)"},
      {"measurement": "Anti-fungal (preferred peptide)", "setting": "fungal", "value": "X (Preferred antifungal peptides can be selected as having MIC or MBC values of less than or equal to about 25 μg/ml)"}
    ]},
    {"compound": "VALALKALKKALKKLKKALKKAL-NH2 [P507]", "values": [
      {"measurement": "LD50", "setting": "[1]; listed as HECATE AMV", "value": 20, "unit": "µg/mL"}
    ]},
    {"compound": "VALALKALKKALKKLKKALKKAL-NH2 [P30]", "values": [
      {"measurement": "MIC Nal-comb.", "setting": "P. aeruginosa", "value": 624, "unit": "µg/mL"},
      {"measurement": "MIC Cm-comb.", "setting": "P. aeruginosa H374", "value": 16, "unit": "µg/mL"},
      {"measurement": "MIC Nal-comb.", "setting": "P. aeruginosa H374", "value": 5000, "unit": "µg/mL"},
      {"measurement": "staph6538 (MIC)", "setting": "[2]", "value": "> (> indicates greater than 200 μg/mL)"},
      {"measurement": "paerug9027 (MIC)", "setting": "[3]", "value": "> (> indicates greater than 200 μg/mL)"},
      {"measurement": "LD50 WI38", "setting": "WI38; listed as KAL V", "value": 93, "unit": "µg/mL"}
    ]},
    {"compound": "FALALKALKKLKKALKKAL-NH2 [P27]", "values": [
      {"measurement": "MIC Nal-comb.", "setting": "P. aeruginosa", "value": 624, "unit": "µg/mL"},
      {"measurement": "MIC Cm-comb.", "setting": "P. aeruginosa H374", "value": 8, "unit": "µg/mL"},
      {"measurement": "MIC Nal-comb.", "setting": "P. aeruginosa H374", "value": 2500, "unit": "µg/mL"},
      {"measurement": "S. epidermidis C621 MIC", "setting": "S. epidermidis C621", "value": 4, "unit": "µg/mL"},
      {"measurement": "S. pneumoniae MIC", "setting": "S. pneumoniae C718", "value": "16 µg/mL and 32 µg/mL"},
      {"measurement": "S. pneumoniae MIC", "setting": "S. pneumoniae C719", "value": "4 and 8"},
      {"measurement": "S. pyogenes MIC", "setting": "S. pyogenes ATCC19615", "value": 4},
      {"measurement": "P. acne MIC", "setting": "P. acne ATCC 6919", "value": 4},
      {"measurement": "S. aureus (MRSA) MIC", "setting": "S. aureus (MRSA)", "value": "8 µg/mL and 16 µg/mL"},
      {"measurement": "S. pyogenes M76 MIC", "setting": "S. pyogenes M76", "value": 4, "unit": "µg/mL"}
    ]},
    {"compound": "FALALKALKKLAKKLKKLAKKAL-NH2 [compound 25]", "values": [
      {"measurement": "Anti-fungal (preferred peptide)", "setting": "fungal", "value": "X (Preferred antifungal peptides can be selected as having MIC or MBC values of less than or equal to about 25 μg/ml)"}
    ]}
  ]
}
